PubChem BioAssay AID686938 | Drosophila RNAi Screening Center | 2013
In all, the deposit lists about 23,000 reagents; below is a random part of those with a known target gene and a result. Over the whole deposit, 75 (0.33%) are marked active. 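Raw plate signals without normalisation; calls rest on plate z-scores that were not deposited; ratio present for only 364 wells.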 Entries without a mark were called inactive. A plus sign joins genes that one reagent is predicted to hit. The record does not give: the dose of the treatment.

Aim: 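Fly genes required for calcium entry once internal stores are emptied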 (primary screen)
Cell system: Drosophila S2R+ cells
Reagents: long dsRNA against Drosophila genes, about 0.25 µg dsRNA per well, roughly 10,000 cells
Duration: 5 days of knock-down before the calcium assay
Treatment: thapsigargin (SERCA pump blocker) to empty calcium stores; entry signal taken 4 min after adding it
Measurement: 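Per-well fluo-4 fluorescence in two replicates, unnormalised, measured in resting cells and 4 min after store depletion by the SERCA blocker thapsigargin; ratio of the two present in few wells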
Scale: calcium entry signal: higher = stronger calcium signal after store depletion; resting calcium signal: higher = higher resting calcium signal
Rule for the call: 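Hit if the duplicate-averaged plate z-score for entry over resting signal is under −3; wells with weak total dye signal (Fmax z < −2) or more than 5 off-targets removed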
Calls: active = strongly reduced calcium entry; inactive = no strong reduction

predicted target | amplicon | calcium entry signal, replicate 1 (fluorescence units) | calcium entry signal, replicate 2 (fluorescence units) | resting calcium signal, replicate 1 (fluorescence units) | resting calcium signal, replicate 2 (fluorescence units)
CG34129 | DRSC15960 | 2.73e7 | 7.28e7 | 1.55e7 | 3.42e7
CG33773 | DRSC14032 | 3.14e7 | 4.02e7 | 1.62e7 | 1.62e7
TTLL6A | DRSC06618 | 4.34e7 | 5.77e7 | 1.92e7 | 2.60e7
jagn | DRSC12152 | 3.83e7 | 4.02e7 | 1.62e7 | 1.87e7
RpS27A | DRSC03421 | 1.55e7 | 1.92e7 | 9.80e6 | 1.17e7
CG13058 | DRSC09941 | 5.52e7 | 7.48e7 | 2.46e7 | 2.98e7
CG2310 | DRSC15438 | 3.25e7 | 4.49e7 | 1.65e7 | 2.02e7
CG33331 + CG33332 | DRSC22928 | 3.35e7 | 3.10e7 | 1.92e7 | 1.52e7
veli | DRSC16276 | 3.60e7 | 6.11e7 | 1.72e7 | 2.55e7
TotB | DRSC15842 | 3.95e7 | 4.72e7 | 6.41e7 | 2.13e7
CG2147 | DRSC18211 | 2.43e7 | 2.67e7 | 1.20e7 | 1.31e7
Acsx3 | DRSC14309 | 3.15e7 | 2.51e7 | 1.55e7 | 1.22e7
Papss | DRSC11246 | 3.09e7 | 3.47e7 | 1.43e7 | 2.46e7
Klp64D | DRSC11204 | 3.36e7 | 6.17e7 | 1.59e7 | 2.77e7
Cyp4e3 | DRSC03306 | 3.98e7 | 5.83e7 | 1.91e7 | 2.43e7
Hers + amn | DRSC20306 | 4.68e7 | 3.46e7 | 2.29e7 | 1.54e7
Cyp6t1 | DRSC20564 | 5.14e7 | 4.55e7 | 2.49e7 | 1.96e7
Vps16B | DRSC15304 | 4.22e7 | 5.66e7 | 2.14e7 | 2.46e7
CG33278 | DRSC10336 | 2.81e7 | 3.59e7 | 1.32e7 | 1.55e7
CG13305 | DRSC09975 | 3.66e7 | 3.64e7 | 1.76e7 | 1.52e7
ND-75 | DRSC18686 | 3.58e7 | 5.07e7 | 1.59e7 | 2.15e7
Jhbp6 | DRSC11714 | 2.39e7 | 3.70e7 | 1.19e7 | 1.61e7
CG11035 | DRSC14287 | 2.54e7 | 3.70e7 | 1.14e7 | 1.83e7
CG4995 | DRSC02801 | 5.04e7 | – | 2.56e7 | –

3 of these entries, set out differently.
{"predicted target": "Acsx3", "amplicon": "DRSC14309", "calcium entry signal, replicate 1 (fluorescence units)": 3.15e7, "calcium entry signal, replicate 2 (fluorescence units)": 2.51e7, "resting calcium signal, replicate 1 (fluorescence units)": 1.55e7, "resting calcium signal, replicate 2 (fluorescence units)": 1.22e7}
{"predicted target": "Papss", "amplicon": "DRSC11246", "calcium entry signal, replicate 1 (fluorescence units)": 3.09e7, "calcium entry signal, replicate 2 (fluorescence units)": 3.47e7, "resting calcium signal, replicate 1 (fluorescence units)": 1.43e7, "resting calcium signal, replicate 2 (fluorescence units)": 2.46e7}
{"predicted target": "Klp64D", "amplicon": "DRSC11204", "calcium entry signal, replicate 1 (fluorescence units)": 3.36e7, "calcium entry signal, replicate 2 (fluorescence units)": 6.17e7, "resting calcium signal, replicate 1 (fluorescence units)": 1.59e7, "resting calcium signal, replicate 2 (fluorescence units)": 2.77e7}
